According to article doi:10.1101/2023.12.14.571518 (bioRxiv, 2023):
No constants are given. Whether binding was seen depends on the method and setting. Some entries that bind do so weakly or less than the wild type.

How the values were obtained:
[1] = target: S. scrofa GCP6 (S. scrofa (endogenous in porcine brain)) (UniProt F1RXS1); assay: cryo-EM structure
[2] = target: S. scrofa GCP3 (S. scrofa (endogenous in porcine brain)) (UniProt F1RN46); assay: cryo-EM structure

binding [1]: binds
binding [2]: binds
Binder: TVSPTRARNMKDFENQITELKKENFNLKLRIYFLEERMQQEFHGPTEHIY (domain or fragment, human, UniProt Q96SN8 51-100, looked up) [CDK5RAP2(51-100)]
